Experimental data: paper PMC9951332

The chains behind the UniProt entries cited, without tags or fusion partners.
UniProt P19474: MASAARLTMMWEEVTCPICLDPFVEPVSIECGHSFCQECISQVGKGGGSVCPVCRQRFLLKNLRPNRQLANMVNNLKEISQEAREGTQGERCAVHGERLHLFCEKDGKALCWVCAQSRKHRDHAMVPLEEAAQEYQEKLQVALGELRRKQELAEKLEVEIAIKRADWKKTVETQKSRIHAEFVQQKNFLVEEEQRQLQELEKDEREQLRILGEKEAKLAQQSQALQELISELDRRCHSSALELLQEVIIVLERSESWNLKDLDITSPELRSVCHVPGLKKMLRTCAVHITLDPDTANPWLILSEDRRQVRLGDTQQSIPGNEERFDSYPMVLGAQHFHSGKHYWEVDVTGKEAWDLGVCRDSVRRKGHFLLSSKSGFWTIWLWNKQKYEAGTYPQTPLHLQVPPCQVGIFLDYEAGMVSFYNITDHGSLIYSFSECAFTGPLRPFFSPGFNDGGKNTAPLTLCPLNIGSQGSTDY

Target: T1, Flag-tagged CD73 (L3.7 cells) (UniProt P21589)
T1 sequence: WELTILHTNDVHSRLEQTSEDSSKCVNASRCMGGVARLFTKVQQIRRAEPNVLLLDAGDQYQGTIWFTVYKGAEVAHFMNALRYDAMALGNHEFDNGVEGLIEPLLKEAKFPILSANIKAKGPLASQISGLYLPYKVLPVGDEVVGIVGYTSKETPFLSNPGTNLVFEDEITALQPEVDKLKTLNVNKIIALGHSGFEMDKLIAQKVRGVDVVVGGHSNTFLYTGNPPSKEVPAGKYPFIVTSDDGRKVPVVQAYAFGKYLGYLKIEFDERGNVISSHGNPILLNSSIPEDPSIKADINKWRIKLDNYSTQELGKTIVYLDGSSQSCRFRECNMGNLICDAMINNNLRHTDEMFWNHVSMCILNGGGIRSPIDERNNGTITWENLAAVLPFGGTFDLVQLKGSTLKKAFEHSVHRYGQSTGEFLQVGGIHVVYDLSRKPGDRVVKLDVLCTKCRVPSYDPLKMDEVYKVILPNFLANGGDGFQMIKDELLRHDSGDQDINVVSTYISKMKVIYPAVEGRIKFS
Experiment: affinity purification with mass spectrometry; anti-Flag immunoprecipitation from L3.7 cells transduced with Flag-tagged CD73, LC-MS/MS (Orbitrap Elite); partners with >= 3 unique peptides

- binding: binds
Substance: TRIM21, endogenous (from UniProt P19474 1-475)

These are yes or no findings as the source states them, for the method shown. In cells and extracts the contact can be indirect. A yes stands for co-enrichment or nearness to the bait. Other partners may have been found. Where a sequence is shown, tags or fusion partners need not be part of it.
